For 1 substance, binding results are on record in publication doi:10.1101/2025.03.09.642136.

Protein sequences, listed by entry. Tags and fused reporters are not part of them.
UniProt P30559: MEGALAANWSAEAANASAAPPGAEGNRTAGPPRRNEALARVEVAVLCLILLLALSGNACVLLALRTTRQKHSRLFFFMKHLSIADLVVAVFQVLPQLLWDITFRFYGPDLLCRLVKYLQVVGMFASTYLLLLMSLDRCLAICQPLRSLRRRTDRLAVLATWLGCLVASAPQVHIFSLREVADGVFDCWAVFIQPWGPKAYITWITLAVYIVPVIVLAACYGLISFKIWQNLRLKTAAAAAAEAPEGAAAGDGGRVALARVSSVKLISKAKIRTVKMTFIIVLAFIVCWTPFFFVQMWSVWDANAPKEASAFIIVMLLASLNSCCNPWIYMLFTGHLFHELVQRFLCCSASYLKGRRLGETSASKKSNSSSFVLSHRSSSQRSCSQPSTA

These are yes or no findings as the source states them, for the method shown. In cells and extracts the contact can be indirect. Some results given as binding are weak or reduced against the parent protein; the word gives no strength.

The target of the experiment is FLAG-tagged oxytocin receptor (OTR-FLAG) (UniProt P30559). Put plainly: co-IP.

“HER2 (human epidermal growth factor receptor 2) (from UniProt P04626 23-1255)”: the binding result was “binds”.
